Experimental data as given in the supplement of paper PMC6414424.
Counter-ions that a name gives are not always drawn. ± gives the standard deviation of the averaged measurements. The list shows a part of the results.

Each compound was assayed on APPdp1-6 iPSC-derived neurons (assay: pThr231Tau/total Tau ratio Z-score vs DMSO vehicle wells; higher = more pThr231Tau relative to total Tau). Conditions: 5 µM; treatment time 5 days.

Compound	pThr231Tau/total Tau ratio Z-score
O=C(OOC(=O)c1ccccc1)c1ccccc1 [BENZOYL PEROXIDE, keratolytic]	0.779 ± 0.87
N[C@@H](Cc1c[nH]c2ccccc12)C(=O)O [TRYPTOPHAN    component of casein; antidepressant; nutrient]	0.841 ± 1.2
CC(O)Cn1cnc2c1c(=O)n(C)c(=O)n2C (configuration not stated)	-0.138 ± 0.099
CC(C)NC[C@@H](O)COc1ccc(CC(N)=O)cc1 [Prestw-536]	0.437 ± 0.21
CC(C)NC[C@@H](O)COc1ccc(CC(N)=O)cc1 [Prestw-953]	-0.336 ± 1.2
NS(=O)(=O)c1cc2c(cc1C(F)(F)F)NCNS2(=O)=O [Prestw-13]	1.52 ± 0.016
NC(=O)CCCCC1CCSS1 (configuration not stated) [Lipoamide]	0.337 ± 1.4
CS(=O)(=O)OCCCCOS(C)(=O)=O [Prestw-1179]	0.22 ± 0.081
Cc1c(NC(=O)c2cccnc2)c(=O)n(-c2ccccc2)n1C [Prestw-225]	0.35 ± 0.78
Nc1nc2c(ncn2COCCO)c(=O)[nH]1 [Prestw-86]	-0.291 ± 0.61
CC(C)(C)NC(=O)[C@@H]1C[C@@H]2CCCC[C@@H]2CN1C[C@@H](O)[C@H](Cc1ccccc1)NC(=O)[C@H](CC(N)=O)NC(=O)c1ccc2ccccc2n1 [Prestw-1114]	0.918 ± 2.1
CCCCCN(CCCCC)C(=O)C(CCC(=O)O)NC(=O)c1ccc(Cl)c(Cl)c1 (configuration not stated) [Prestw-915]	-0.337 ± 0.54
COc1c(N2C[C@@H]3CCCN[C@@H]3C2)c(F)cc2c(=O)c(C(=O)O)cn(C3CC3)c12 [MOXIFLOXACIN HYDROCHLORIDE, antibacterial]	0.41 ± 1.1
COc1c(N2C[C@@H]3CCCN[C@@H]3C2)c(F)cc2c(=O)c(C(=O)O)cn(C3CC3)c12 [Prestw-1446]	-0.148 ± 0.19
COc1ccc(C(=O)c2ccccc2)c(O)c1 [Prestw-887]	0.793 ± 1.9
COc1ncnc(NS(=O)(=O)c2ccc(N)cc2)c1OC [Prestw-1094]	-0.43 ± 0.55
CC(=O)OCC(=O)[C@@]1(O)[C@H](C)C[C@H]2[C@@H]3CCC4=CC(=O)C=C[C@]4(C)[C@@]3(F)[C@@H](O)C[C@@]21C [Prestw-130]	-0.302 ± 0.093
COc1ccc(C(=O)CC(=O)c2ccc(C(C)(C)C)cc2)cc1 [AVOBENZONE    Therap cat: sunscreen]	1.07 ± 1.1
CCOC(=O)C1=C(C)NC(C)=C(C(=O)OCC)C1c1ccccc1/C=C/C(=O)OC(C)(C)C [Prestw-1297]	0.241 ± 1.2
CCOc1cc(CC(=O)N[C@@H](CC(C)C)c2ccccc2N2CCCCC2)ccc1C(=O)O [Prestw-1046]	0.0801 ± 0.01
CCCCN(CCCC)CCC(O)c1cc2c(Cl)cc(Cl)cc2c2cc(C(F)(F)F)ccc12 (configuration not stated) [Prestw-1031]	-2.73
C#C[C@]1(O)CC[C@H]2[C@@H]3CCc4cc(O)ccc4[C@H]3CC[C@@]21C [Prestw-1405]	0.21 ± 1.4
CC(C(=O)O)c1cccc(C(=O)c2ccccc2)c1 (configuration not stated) [Prestw-219]	-0.844 ± 0.76
Nc1nc(N)c2nc(CNc3ccc(C(=O)N[C@@H](CCC(=O)O)C(=O)O)cc3)cnc2n1 [Dihydrofolate reductase inhibitor]	0.944 ± 0.22

Rewritten as comma-separated lines: part of the list above
Compound,pThr231Tau/total Tau ratio Z-score
CC(O)Cn1cnc2c1c(=O)n(C)c(=O)n2C (configuration not stated),-0.138 ± 0.099
CC(C)NC[C@@H](O)COc1ccc(CC(N)=O)cc1 [Prestw-536],0.437 ± 0.21
CC(C)NC[C@@H](O)COc1ccc(CC(N)=O)cc1 [Prestw-953],-0.336 ± 1.2
NS(=O)(=O)c1cc2c(cc1C(F)(F)F)NCNS2(=O)=O [Prestw-13],1.52 ± 0.016
NC(=O)CCCCC1CCSS1 (configuration not stated) [Lipoamide],0.337 ± 1.4
CS(=O)(=O)OCCCCOS(C)(=O)=O [Prestw-1179],0.22 ± 0.081
Cc1c(NC(=O)c2cccnc2)c(=O)n(-c2ccccc2)n1C [Prestw-225],0.35 ± 0.78
Nc1nc2c(ncn2COCCO)c(=O)[nH]1 [Prestw-86],-0.291 ± 0.61
CC(C)(C)NC(=O)[C@@H]1C[C@@H]2CCCC[C@@H]2CN1C[C@@H](O)[C@H](Cc1ccccc1)NC(=O)[C@H](CC(N)=O)NC(=O)c1ccc2ccccc2n1 [Prestw-1114],0.918 ± 2.1
CCCCCN(CCCCC)C(=O)C(CCC(=O)O)NC(=O)c1ccc(Cl)c(Cl)c1 (configuration not stated) [Prestw-915],-0.337 ± 0.54
"COc1c(N2C[C@@H]3CCCN[C@@H]3C2)c(F)cc2c(=O)c(C(=O)O)cn(C3CC3)c12 [MOXIFLOXACIN HYDROCHLORIDE, antibacterial]",0.41 ± 1.1
COc1c(N2C[C@@H]3CCCN[C@@H]3C2)c(F)cc2c(=O)c(C(=O)O)cn(C3CC3)c12 [Prestw-1446],-0.148 ± 0.19
COc1ccc(C(=O)c2ccccc2)c(O)c1 [Prestw-887],0.793 ± 1.9
COc1ncnc(NS(=O)(=O)c2ccc(N)cc2)c1OC [Prestw-1094],-0.43 ± 0.55
CC(=O)OCC(=O)[C@@]1(O)[C@H](C)C[C@H]2[C@@H]3CCC4=CC(=O)C=C[C@]4(C)[C@@]3(F)[C@@H](O)C[C@@]21C [Prestw-130],-0.302 ± 0.093
COc1ccc(C(=O)CC(=O)c2ccc(C(C)(C)C)cc2)cc1 [AVOBENZONE    Therap cat: sunscreen],1.07 ± 1.1
CCOC(=O)C1=C(C)NC(C)=C(C(=O)OCC)C1c1ccccc1/C=C/C(=O)OC(C)(C)C [Prestw-1297],0.241 ± 1.2
CCOc1cc(CC(=O)N[C@@H](CC(C)C)c2ccccc2N2CCCCC2)ccc1C(=O)O [Prestw-1046],0.0801 ± 0.01
CCCCN(CCCC)CCC(O)c1cc2c(Cl)cc(Cl)cc2c2cc(C(F)(F)F)ccc12 (configuration not stated) [Prestw-1031],-2.73
C#C[C@]1(O)CC[C@H]2[C@@H]3CCc4cc(O)ccc4[C@H]3CC[C@@]21C [Prestw-1405],0.21 ± 1.4

(listing goes on)

Compound	pThr231Tau/total Tau ratio Z-score
CCOC(=O)c1ncn2c1CN(C)C(=O)c1cc(F)ccc1-2 [Benzodiazepine receptor antagonist]	-0.315 ± 0.74
O=NN(CCCl)C(=O)NCCCl [DNA alkylating agent; causes interstrand crosslinks]	1.22 ± 0.67
CCCC1O[C@@H]2C[C@H]3[C@@H]4CCC5=CC(=O)C=C[C@]5(C)[C@H]4[C@@H](O)C[C@]3(C)[C@]2(C(=O)CO)O1 (some centres not stated) [Prestw-518]	1.43 ± 1.8
O=C([O-])CN(CCN(CC(=O)[O-])CC(=O)O)CC(=O)[O-].[Na+].[Na+].[Na+]	0.286 ± 0.17
NS(=O)(=O)c1cc2c(cc1Cl)NC(CSCc1ccccc1)=NS2(=O)=O [Prestw-824]	0.118 ± 0.27
CC1(C)S[C@@H]2[C@H](NC(=O)[C@H](C(=O)O)c3ccsc3)C(=O)N2[C@H]1C(=O)O [Prestw-1067]	-0.609 ± 0.54
Cc1cc(NS(=O)(=O)c2ccc(N)cc2)no1 [Prestw-177]	-0.171 ± 0.23
CN[C@@H]1[C@@H](O)[C@@H](O[C@@H]2[C@@H](O)[C@H](O[C@H]3OC(CN)=CC[C@H]3N)[C@@H](N)C[C@H]2N)OC[C@]1(C)O [Prestw-506]	0.178 ± 0.28
CCOC(=O)n1ccn(C)c1=S [Prestw-439]	-1.06 ± 0.54
C[C@H](N)[C@H](O)c1cccc(O)c1 [Prestw-197]	0.21 ± 0.38
CC1(C)S[C@@H]2[C@H](NC(=O)C(C(=O)O)c3ccccc3)C(=O)N2[C@H]1C(=O)O (some centres not stated) [CARBENICILLIN DISODIUM    Therap cat:  Antibacterial]	0.461 ± 0.24
CCN(CC)CCOC(=O)C(Cc1cccc2ccccc12)CC1CCCO1 (configuration not stated) [Prestw-377]	0.944 ± 0.81
NC(=NCCCCCCN=C(N)/N=C(\N)Nc1ccc(Cl)cc1)/N=C(\N)Nc1ccc(Cl)cc1 [Prestw-143]	-2.59 ± 0.29
O=C1CN(/N=C/c2ccc([N+](=O)[O-])o2)C(=O)N1 [Prestw-168]	-1.99 ± 1.8
Cc1ccccc1OCC(O)CO (configuration not stated) [Prestw-178]	0.109 ± 0.6
Nc1c2c(nc3ccccc13)CCCC2 [Prestw-329]	0.826 ± 1.7
C=C[C@@]1(C)CC(=O)[C@]2(O)[C@@]3(C)[C@@H](O)CCC(C)(C)[C@@H]3[C@H](O)[C@H](OC(C)=O)[C@@]2(C)O1	0.47 ± 0.69
CCN(CC)C(=S)SSC(=S)N(CC)CC [Prestw-97]	-0.293 ± 1.2
C/C(=C(\CCOP(=O)(O)O)SC(=O)c1ccccc1)N(C=O)Cc1cnc(C)nc1N [Prestw-654]	0.279 ± 0.0051
CC1(C)O[C@@H]2C[C@H]3[C@@H]4CCC5=CC(=O)C=C[C@]5(C)[C@H]4[C@@H](O)C[C@]3(C)[C@]2(C(=O)CO)O1 [DESONIDE, antiinflammatory, glucocorticoid]	1.61 ± 1.1
CCN(CC)CCOc1ccc2c(c1)C(=O)c1cc(OCCN(CC)CC)ccc1-2 [TILORONE    Therap cat: antiviral]	-0.123 ± 0.21
O=C(CCCCCCC(=O)Nc1ccccc1)NO [Prestw-1362]	-2.52 ± 2.2
NC[C@H]1O[C@H](O[C@H]2[C@H](O)[C@@H](O[C@H]3O[C@H](CO)[C@@H](O)[C@H](N)[C@H]3O)[C@H](N)C[C@@H]2N)[C@H](O)[C@@H](O)[C@@H]1O [Prestw-394]	1.07 ± 0.4
CC[C@H]1OC(=O)C[C@@H](O)[C@H](C)[C@@H](O[C@@H]2O[C@H](C)[C@@H](O[C@H]3C[C@@](C)(O)[C@@H](O)[C@H](C)O3)[C@H](N(C)C)[C@H]2O)[C@@H](CC=O)C[C@@H](C)C(=O)/C=C/C(C)=C/[C@@H]1CO[C@@H]1O[C@H](C)[C@@H](O)[C@@H](OC)[C@H]1OC [Prestw-1353]	-0.14 ± 0.82

Compound	pThr231Tau/total Tau ratio Z-score
C[C@]12C[C@H](O)[C@H]3[C@@H](CCC4=CC(=O)CC[C@@]43C)[C@@H]1CC[C@@H]2C(=O)CO [Prestw-432]	-1.17 ± 0.098
CN(C)CCn1nnnc1SCC1=C(C(=O)O)N2C(=O)[C@@H](NC(=O)Cc3csc(N)n3)[C@H]2SC1 [Prestw-832]	0.125 ± 0.34
CN(C)CCn1nnnc1SCC1=C(C(=O)O)N2C(=O)[C@@H](NC(=O)Cc3csc(N)n3)[C@H]2SC1 [Prestw-482]	0.152 ± 0.96
CC(C)CCCC(C)N (configuration not stated) [OCTODRINE, vasoconstrictor, anesthetic (local)]	0.564 ± 0.066
COc1cc(C2Oc3cc([C@H]4Oc5cc(O)cc(O)c5C(=O)[C@@H]4O)ccc3OC2CO)ccc1O (some centres not stated)	0.93 ± 0.56
CC(=O)N[C@@H](CS)C(=O)O [Prestw-1206]	0.509 ± 0.94
CC(=O)O[C@H]1C[C@@]2(C)[C@@H](C[C@@H](O)[C@H]3[C@@]4(C)CC[C@@H](O)[C@@H](C)[C@@H]4CC[C@@]32C)/C1=C(\CCC=C(C)C)C(=O)O [Prestw-390]	0.358 ± 1.3
CCN(CC)CCOC(=O)c1ccc(N)cc1 [Prestw-41]	-0.282 ± 0.19
Cc1c(C)c2c(c(C)c1O)CCC(C)(C(=O)O)O2 (configuration not stated) [Prestw-530]	1.71 ± 0.29
CC[C@H](C)C(=O)O[C@H]1C[C@@H](C)C=C2C=C[C@H](C)[C@H](CC[C@@H]3C[C@@H](O)CC(=O)O3)[C@H]21 [Prestw-516]	-2.96 ± 1.3
CCCCNc1cc(C(=O)O)cc(S(N)(=O)=O)c1Oc1ccccc1 [Prestw-276]	-0.359 ± 0.84
CNC(=O)c1c(I)c(C(=O)NCC(=O)Nc2c(I)c(C(=O)O)c(I)c(C(=O)NCCO)c2I)c(I)c(N(C)C(C)=O)c1I [Prestw-1062]	-1.14 ± 2
CC(=O)Oc1ccccc1C(=O)Oc1ccccc1C(=O)O [Prestw-98]	-0.683 ± 1.6
CC(C)n1c(/C=C/C(O)CC(O)CC(=O)O)c(-c2ccc(F)cc2)c2ccccc21 (configuration not stated) [Prestw-859]	-2.74 ± 1
NC(=O)OCC(COC(N)=O)c1ccccc1 [Anticonvulsant; glutamate receptor antagonist]	0.0574 ± 1.5
C[C@H]1NC(=O)NC1=O [Prestw-864]	0.0882 ± 0.12
Cc1ccnc(NS(=O)(=O)c2ccc(N)cc2)n1 [Prestw-694]	-1.23 ± 0.31
Nc1ccc(S(=O)(=O)Nc2cnc3ccccc3n2)cc1 [Prestw-731]	-0.508 ± 0.19
CNC[C@H](O)[C@@H](O)[C@H](O)[C@H](O)CO [Prestw-884]	-0.165 ± 1.5
NCCCC(O)(P(=O)(O)O)P(=O)(O)O [Prestw-1210]	0.563 ± 0.9
NS(=O)(=O)c1cc(Cl)c(Cl)c(S(N)(=O)=O)c1 [Prestw-809]	0.904 ± 0.14
O=C(O)c1ccc(S(=O)(=O)N(Cl)Cl)cc1 [HALAZONE    Therap cat: disinfectant]	0.353 ± 0.25
O=C(Oc1ccccc1C(=O)O)c1ccccc1O [SALSALATE, analgesic]	0.779 ± 0.31
COc1c(C)c2c(c(O)c1C/C=C(\C)CCC(=O)O)C(=O)OC2	-0.0747 ± 1
